The record followed here is PMC6668832, “Structural basis for recognition of the tumor suppressor protein PTPN14 by the oncoprotein E7 of human papillomavirus” (PLoS Biology, 2019).

Chains of the proteins cited; added tags and fusions are not shown. Residues count along the entry.
UniProt P06788, residues 54-105: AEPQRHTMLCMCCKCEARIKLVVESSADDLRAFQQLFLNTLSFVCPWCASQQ
UniProt P46937: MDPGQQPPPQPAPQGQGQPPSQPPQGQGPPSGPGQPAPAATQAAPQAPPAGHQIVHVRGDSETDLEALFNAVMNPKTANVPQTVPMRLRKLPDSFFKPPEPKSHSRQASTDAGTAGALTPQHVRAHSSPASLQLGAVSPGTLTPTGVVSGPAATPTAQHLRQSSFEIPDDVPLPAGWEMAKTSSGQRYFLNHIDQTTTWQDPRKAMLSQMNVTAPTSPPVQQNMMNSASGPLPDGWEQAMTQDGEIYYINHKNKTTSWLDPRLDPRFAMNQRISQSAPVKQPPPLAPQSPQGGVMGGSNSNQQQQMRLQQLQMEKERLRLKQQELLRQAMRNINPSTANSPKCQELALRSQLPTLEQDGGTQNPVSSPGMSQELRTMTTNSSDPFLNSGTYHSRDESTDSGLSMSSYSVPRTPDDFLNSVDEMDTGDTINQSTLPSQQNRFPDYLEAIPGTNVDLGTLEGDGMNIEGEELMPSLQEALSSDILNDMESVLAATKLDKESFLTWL
UniProt P26045, residues 628-913: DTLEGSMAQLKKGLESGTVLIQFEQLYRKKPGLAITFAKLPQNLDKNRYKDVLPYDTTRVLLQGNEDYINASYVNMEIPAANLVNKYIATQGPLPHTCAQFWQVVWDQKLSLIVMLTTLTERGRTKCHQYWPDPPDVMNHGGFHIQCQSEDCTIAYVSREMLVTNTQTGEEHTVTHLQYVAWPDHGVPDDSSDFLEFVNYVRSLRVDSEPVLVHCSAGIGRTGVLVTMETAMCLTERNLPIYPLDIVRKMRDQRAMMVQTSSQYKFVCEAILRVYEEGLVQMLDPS
UniProt P23469, residues 107-398: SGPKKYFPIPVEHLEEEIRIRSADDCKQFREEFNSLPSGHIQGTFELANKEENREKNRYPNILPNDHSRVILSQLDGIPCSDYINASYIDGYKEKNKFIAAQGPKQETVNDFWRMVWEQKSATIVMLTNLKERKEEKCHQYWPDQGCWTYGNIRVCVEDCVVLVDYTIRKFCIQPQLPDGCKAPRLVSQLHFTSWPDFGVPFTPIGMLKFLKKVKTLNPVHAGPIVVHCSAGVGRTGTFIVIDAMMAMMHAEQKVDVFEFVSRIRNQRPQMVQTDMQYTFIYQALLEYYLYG
UniProt Q13332, residues 1367-1948: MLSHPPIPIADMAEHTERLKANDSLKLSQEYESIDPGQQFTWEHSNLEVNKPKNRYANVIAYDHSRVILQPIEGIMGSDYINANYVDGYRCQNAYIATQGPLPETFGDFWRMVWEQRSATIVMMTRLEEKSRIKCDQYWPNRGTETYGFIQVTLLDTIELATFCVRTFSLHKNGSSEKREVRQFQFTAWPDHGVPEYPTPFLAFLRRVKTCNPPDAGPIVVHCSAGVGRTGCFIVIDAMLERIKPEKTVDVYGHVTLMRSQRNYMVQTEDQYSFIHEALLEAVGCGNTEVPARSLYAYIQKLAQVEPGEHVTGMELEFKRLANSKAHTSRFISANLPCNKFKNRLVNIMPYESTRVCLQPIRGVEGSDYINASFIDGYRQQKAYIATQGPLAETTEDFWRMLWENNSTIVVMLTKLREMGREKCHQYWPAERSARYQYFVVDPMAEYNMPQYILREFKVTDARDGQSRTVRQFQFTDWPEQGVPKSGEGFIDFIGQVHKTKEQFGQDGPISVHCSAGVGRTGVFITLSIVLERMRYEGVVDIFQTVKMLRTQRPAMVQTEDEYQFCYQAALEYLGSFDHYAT

Like-named read-outs stand apart in the source and are kept apart here. Results are given in words; binding and its absence hold for the method and conditions named. For some assays here: In cells and extracts the contact can be indirect. Some entries that bind do so weakly or less than the wild type. For some assays here: Tags and fused reporters may be left off the sequences shown.

One assay deals with T1, Flag-tagged LATS1 (UniProt O95835).
T1 sequence: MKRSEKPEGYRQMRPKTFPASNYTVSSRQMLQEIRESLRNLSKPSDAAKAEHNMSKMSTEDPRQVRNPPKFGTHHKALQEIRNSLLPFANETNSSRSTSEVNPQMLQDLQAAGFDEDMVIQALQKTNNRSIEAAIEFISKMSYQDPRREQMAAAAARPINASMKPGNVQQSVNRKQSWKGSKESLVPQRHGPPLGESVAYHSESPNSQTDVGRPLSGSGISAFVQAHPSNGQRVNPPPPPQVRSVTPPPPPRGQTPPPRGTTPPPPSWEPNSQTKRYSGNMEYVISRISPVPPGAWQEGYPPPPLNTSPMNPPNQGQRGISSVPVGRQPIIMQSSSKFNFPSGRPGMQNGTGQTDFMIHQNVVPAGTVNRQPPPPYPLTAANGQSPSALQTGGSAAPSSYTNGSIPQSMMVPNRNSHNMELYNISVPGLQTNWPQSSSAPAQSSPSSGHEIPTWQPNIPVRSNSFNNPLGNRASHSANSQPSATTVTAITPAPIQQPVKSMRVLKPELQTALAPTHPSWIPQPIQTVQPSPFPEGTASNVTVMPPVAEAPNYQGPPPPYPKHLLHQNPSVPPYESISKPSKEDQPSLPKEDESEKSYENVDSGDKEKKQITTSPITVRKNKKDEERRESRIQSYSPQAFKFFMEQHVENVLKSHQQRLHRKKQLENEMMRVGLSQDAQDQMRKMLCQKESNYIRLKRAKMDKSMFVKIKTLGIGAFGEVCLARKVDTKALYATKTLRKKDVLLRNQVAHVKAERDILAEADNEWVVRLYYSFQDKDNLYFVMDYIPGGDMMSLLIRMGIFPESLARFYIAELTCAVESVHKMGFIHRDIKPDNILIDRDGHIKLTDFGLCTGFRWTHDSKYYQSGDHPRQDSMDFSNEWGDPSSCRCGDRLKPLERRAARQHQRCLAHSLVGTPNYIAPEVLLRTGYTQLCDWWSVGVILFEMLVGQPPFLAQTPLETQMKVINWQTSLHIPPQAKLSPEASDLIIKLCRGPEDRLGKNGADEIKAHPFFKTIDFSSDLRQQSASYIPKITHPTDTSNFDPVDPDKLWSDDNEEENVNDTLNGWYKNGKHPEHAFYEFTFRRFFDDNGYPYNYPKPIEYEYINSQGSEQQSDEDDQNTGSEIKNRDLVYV
Briefly: co-IP; 293T cells transiently expressing wild-type or SQA mutant PTPN14 with Flag-tagged YAP or LATS1; coimmunoprecipitation and immunoblotting. On the technique in general: A western blot detects proteins with antibodies after separation by electrophoresis.

In assay [1] the target is MBP-tagged HPV18 E7 C-terminal domain (residues 54–105) (human papillomavirus 18 (HPV18)) (UniProt P06788). Briefly: ITC; 25 °C, VP-ITC; PTP domain titrated into MBP-tagged HPV18 E7 (0.2 mM into 10 μM in Fig 1B); 20 mM Tris-HCl pH 7.5, 100 mM NaCl, 10 mM β-mercaptoethanol; one-to-one model; triplicate; both purified. Background: In ITC the heat of successive injections is recorded.

Assay [2] has the same target. The description is as above. The source holds these as a separate data set.
Another assay deals with Flag-tagged YAP (UniProt P46937). Nature of the assay: co-IP; 293T cells transiently expressing wild-type or SQA mutant PTPN14 with Flag-tagged YAP or LATS1; coimmunoprecipitation and immunoblotting.

As to “PTPN14 construct containing F1044S∙G1055Q∙E1095A mutations (cellular) (from UniProt Q15678 1-1187)”, in the assay with Flag-tagged LATS1, the binding result is listed as “binds”.

As for “PTP domain of PTPN3 (residues 628–913) (from UniProt P26045 628-913) (domain or fragment)”, in assay [1], the binding entry was “no binding”.

With “PTP domain of PTPε (residues 107–398) (from UniProt P23469 107-398) (domain or fragment)”, the binding entry in assay [1] is “no binding”.

As to “PTP domain of PTPσ (residues 1367–1948) (from UniProt Q13332 1367-1948) (domain or fragment)”, in assay [1], the binding entry was “no binding”.

B1: PTP domain of PTP1B (residues 1–321) (domain or fragment, UniProt P18031 1-321)
chain: MEMEKEFEQIDKSGSWAAIYQDIRHEASDFPCRVAKLPKNKNRNRYRDVSPFDHSRIKLHQEDNDYINASLIKMEEAQRSYILTQGPLPNTCGHFWEMVWEQKSRGVVMLNRVMEKGSLKCAQYWPQKEEKEMIFEDTNLKLTLISEDIKSYYTVRQLELENLTTQETREILHFHYTTWPDFGVPESPASFLNFLFKVRESGSLSPEHGPVVVHCSAGIGRSGTFCLADTCLLLMDKRKDPSSVDIKKVLLEMRKFRMGLIQTADQLRFSYLAVIEGAKFIMGDSSVQDQWKELSHEDLEPPPEHIPPPPRPPKRILEPHN
B1: the binding result in assay [2] is listed as “no binding”.

B2: wild-type PTPN14 (pcDNA3-V5-PTPN14-wild type) (protein, UniProt Q15678 1-1187)
chain: MPFGLKLRRTRRYNVLSKNCFVTRIRLLDSNVIECTLSVESTGQECLEAVAQRLELRETHYFGLWFLSKSQQARWVELEKPLKKHLDKFANEPLLFFGVMFYVPNVSWLQQEATRYQYYLQVKKDVLEGRLRCTLDQVIRLAGLAVQADFGDYNQFDSQDFLREYVLFPMDLALEEAVLEELTQKVAQEHKAHSGILPAEAELMYINEVERLDGFGQEIFPVKDNHGNCVHLGIFFMGIFVRNRIGRQAVIYRWNDMGNITHNKSTILVELINKEETALFHTDDIENAKYISRLFATRHKFYKQNKICTEQSNSPPPIRRQPTWSRSSLPRQQPYILPPVHVQCGEHYSETHTSQDSIFHGNEEALYCNSHNSLDLNYLNGTVTNGSVCSVHSVNSLNCSQSFIQASPVSSNLSIPGSDIMRADYIPSHRHSAIIVPSYRPTPDYETVMRQMKRGILHTDSQSQSLRNLNIINTHAYNQPEDLVYSQPEMRERHPYTVPYGPQGVYSNKLVSPSDQRNPKNNVVPSKPGASAISHTVSTPELANMQLQGSHNYSTAHMLKNYLFRPPPPYPRPRPATSTPDLASHRHKYVSGSSPDLVTRKVQLSVKTFQEDSSPVVHQSLQEVSEPLTATKHHGTVNKRHSLEVMNSMVRGMEAMTLKSLHLPMARRNTLREQGPPEEGSGSHEVPQLPQYHHKKTFSDATMLIHSSESEEEEEEAPESVPQIPMLREKMEYSAQLQAALARIPNKPPPEYPGPRKSVSNGALRQDQASLPPAMARARVLRHGPAKAISMSRTDPPAVNGASLGPSISEPDLTSVKERVKKEPVKERPVSEMFSLEDSIIEREMMIRNLEKQKMAGLEAQKRPLMLAALNGLSVARVSGREENRVDATRVPMDERFRTLKKKLEEGMVFTEYEQIPKKKANGIFSTAALPENAERSRIREVVPYEENRVELIPTKENNTGYINASHIKVVVGGAEWHYIATQGPLPHTCHDFWQMVWEQGVNVIAMVTAEEEGGRTKSHRYWPKLGSKHSSATYGKFKVTTKFRTDSVCYATTGLKVKHLLSGQERTVWHLQYTDWPDHGCPEDVQGFLSYLEEIQSVRRHTNSMLEGTKNRHPPIVVHCSAGVGRTGVLILSELMIYCLEHNEKVEVPMMLRLLREQRMFMIQTIAQYKFVYQVLIQFLQNSRLI
B2: the binding entry in the assay with Flag-tagged YAP and with Flag-tagged LATS1 was “binds” in each case.

B3: PTP domain of PTPN14 containing the F1044S∙G1055Q∙E1095A mutation (domain or fragment, UniProt Q15678 886-1187)
chain: VDATRVPMDERFRTLKKKLEEGMVFTEYEQIPKKKANGIFSTAALPENAERSRIREVVPYEENRVELIPTKENNTGYINASHIKVVVGGAEWHYIATQGPLPHTCHDFWQMVWEQGVNVIAMVTAEEEGGRTKSHRYWPKLGSKHSSATYGKFKVTTKSRTDSVCYATTQLKVKHLLSGQERTVWHLQYTDWPDHGCPEDVQGFLSYLEAIQSVRRHTNSMLEGTKNRHPPIVVHCSAGVGRTGVLILSELMIYCLEHNEKVEVPMMLRLLREQRMFMIQTIAQYKFVYQVLIQFLQNSRLI
Take B3: in assay [2], the binding entry is “no binding”.
